In PubChem BioAssay AID540276 (National Center for Advancing Translational Sciences (NCATS), 2011):
Values joined by “and” are separate entries in the source; they are usually repeats but may differ in a detail not shown here. Equal values may be shown once. The whole screen tested about 300,000 compounds, of which about 5,400 (1.8%) were called active. Inconclusive means that the source gave no clear call. Such entries were picked first, then a sample of the others. Calls come from the whole dose curve; tested in HEK293 cells. Potencies beside an inconclusive call are fits to weak or partial responses and may not hold up. Where a structure was tested more than once in an assay, its records may differ in their call.

test: qHTS for inhibitors of binding or entry into cells for Marburg Virus; conditions: Marburg virus pseudotyped entry inhibition, cell reporter; activity change, negative = inhibition: at 37.8 µM (top of the series) unless noted
% is set by controls: 0 for no effect and ±100 for the full control effect; potency is the fitted concentration of half-maximal effect.

SMILES | Potency | activity change, negative = inhibition
CC1(C)Cc2ccccc2-c2nnc(-c3ccccc3)n21 | inconclusive: 0.259 µM [inhibitor, partial curve, poor fit] | 
CC1(CC(=O)N/N=C/c2ccc(-c3ccc(C(=O)O)cc3)o2)OCCO1 |  | inactive: -7.85%
O=C(CN1CCCCCC1)Nc1ccccc1 | inconclusive: 6.31 µM [inhibitor, single point] | 
Cn1c(=O)[nH]c(=O)c2c1nc(N1CCCCCC1)n2CCCSc1nc2ccccc2o1 | inconclusive: 17.8 µM [inhibitor, single point] | 
COc1cccc(C(=O)Nc2ccc(NC(=O)C3CC=CCC3C(=O)O)cc2)c1 (stereo unspecified) |  | inactive: 20.9%
CO/N=C(/CS(=O)Cc1ccc(Cl)cc1)c1ccc(Cl)cc1 (stereo unspecified) |  | inactive: 0.656%
N#Cc1ccc(OC(=O)c2cnccn2)cc1 |  | inactive: 2.86% [at 46.1 µM]
COc1ccc(C(=O)Nc2ccc(C3=NNC(=O)CC3C)cc2NC(=O)c2ccc(OC)cc2)cc1 (stereo unspecified) | inconclusive: 35.5 µM [inhibitor, single point] | 
O=C(Nc1nnc(SCC(=O)N2CCCCC2)s1)C1CCCCC1 | inconclusive: 7.3 µM [activator, partial curve, poor fit] | 
CCOC(=O)Nc1ccc2c(c1)nc(CN1CCN(C(C)=O)CC1)n2C | inconclusive: 25.9 µM [activator, single point] | 
Cc1cc(Cl)c2oc(C(=O)N3CCN(c4ccncc4)CC3)c(C)c2c1 | active: 3.55 µM | 
CCCOc1ccc(/C(O)=C2/C(=O)C(=O)N(CCN(C)C)C2c2ccco2)cc1 (stereo unspecified) |  | inactive: 5.51%
C/C(=N\NC(=O)c1nnn(-c2nonc2N)c1-c1ccc2c(c1)OCO2)c1cccs1 |  | inactive: -11% [at 46.1 µM]
COc1ccc(NC(=O)CCNS(=O)(=O)c2cccc3nonc23)c(OC)c1 | inactive | 
O=C(CN1C(=O)NC2(CCCCC2)C1=O)NC1CCCc2ccccc21 (stereo unspecified) | inconclusive: 12.6 µM [activator, single point] | 
CCOC(=O)c1c(C2COc3ccccc3O2)csc1N (stereo unspecified) |  | inactive: -28.7%
Cc1cccc(C)c1N(CC(O)Cn1c2ccccc2c2ccccc21)S(C)(=O)=O (stereo unspecified) | inconclusive: 29.1 µM [inhibitor, single point] | 
Cc1ccc(C(=O)N/C(=C/c2cccc([N+](=O)[O-])c2)C(=O)NC(C)C)cc1 |  | inactive: 19%
Clc1ccc(-c2nnc(Sc3nc4ccccc4o3)c3ccccc23)cc1 | inconclusive: 29.1 µM [inhibitor, single point] | 
O=C(Nc1nc2c(ccc3ccccc32)s1)c1ccco1 | active: 14.6 µM | 
CCc1cccc(OCC(=O)Nc2ccc(S(=O)(=O)N3CCCC3)cc2)c1 |  | inactive: -14.1% [at 46.1 µM]
CCCCNC(=O)c1ccccc1C(=O)NCCCC |  | inactive: -12.6%
Cc1ccc(C)n1-c1ccc2c(c1)COC2=O |  | inactive: -3.69%

SMILES | Potency | activity change, negative = inhibition
O=C1CCCc2nc(N3CCN(C(c4ccccc4)c4ccccc4)CC3)ncc21 | inconclusive: 16.4 µM [inhibitor, single point] | 
CCOc1ccc(-c2cc(CCCC(=O)NCCc3ccc(OC)c(OC)c3)no2)cc1 | inconclusive: 1 µM [inhibitor, full curve, poor fit] | 
CCCCCCCc1cc2ccccc2c2c(C(=O)OC)c(-c3ccccc3)c(C(=O)OC)n12 | inconclusive: 0.0033 µM [inhibitor, full curve, poor fit] | 
Cc1cc(C(=O)CN2C(=O)NC3(CCCc4sccc43)C2=O)c(C)n1-c1ccccc1 (stereo unspecified) |  | inactive: -9.21%
CCc1nn(CC(=O)NCCN2CCN(C)CC2)c(=O)c2cc3occc3n12 |  | inactive: 16%
CNc1ccccc1C(C)(C)c1cc(-c2cccc([N+](=O)[O-])c2)no1 | active: 4.47 µM | 
COc1ccc(-n2c(SCc3nc(-c4ccc(Cl)cc4)no3)nnc2-c2ccncc2)cc1 |  | inactive: -13.3% [at 46.1 µM]
N#C/C(=C\c1ccc(N2CCCCC2)o1)C(=O)Nc1cccc(Br)c1 | inconclusive: 0.92 µM [activator, full curve, poor fit] | 
CN1CCN(c2c(/C=N/O)c3ccccc3n2C)CC1 |  | inactive: 8.99% [at 46.1 µM]
CC(C)c1nc2cc(C(=O)N3CCN(c4cnccn4)CC3)ccc2o1 |  | inactive: 8.05%
COc1cc(/C=N/NC(=O)c2ccc(C)nc2)cc([N+](=O)[O-])c1O | inconclusive: 3.16 µM [inhibitor, partial curve, poor fit] | 
O=C(NCCc1c[nH]c2ccccc12)C(=O)NCC1OCCCN1S(=O)(=O)c1cc(F)ccc1F (stereo unspecified) | inconclusive: 35.5 µM [inhibitor, single point] | 
COC(=O)[C@H](CCSC)NC(=O)Nc1ccc(OC)cc1OC | inconclusive: 29.1 µM [activator, partial curve, poor fit] | 
O=C(N/N=C/c1ccc2c(c1)OCO2)c1ccc(Cl)cc1Cl | inconclusive: 14.1 µM [inhibitor, partial curve, poor fit] | 
Fc1ccccc1-c1csc(=Nc2cccnc2)n1CCCn1ccnc1 | inconclusive: 11.2 µM [inhibitor, partial curve, poor fit] | 
O=C(Cn1nnc(-c2ccccc2)n1)Nc1ccc2c(c1)OCO2 |  | inactive: 1.12%
COc1ccc(NC(=O)c2ccco2)cc1NC(=O)c1cccc(OC(C)C)c1 | inconclusive: 13 µM [inhibitor, partial curve, poor fit] | 
COc1cccc(NC(=O)Cn2c(=O)n(CCCCC(=O)NCc3ccc4c(c3)OCO4)c(=O)c3ccccc32)c1 | inconclusive: 3.98 µM [inhibitor, full curve, poor fit] | 
Cc1cc2nc(SCC(=O)Nc3nonc3C)c3c(c2cc1C)CCCC3 | inconclusive: 5.8 µM [inhibitor, partial curve] | 
COC(=O)c1nn(-c2ccc(OC)cc2)c(=O)c2c(N)sc(C)c12 | inconclusive: 0.447 µM [activator, partial curve, poor fit] | 
Cc1ccccc1N=C(NOCc1ccc(Cl)cc1Cl)c1nonc1N | inconclusive: 23.1 µM [inhibitor, partial curve, poor fit] | 
CCOC(=O)c1c(C)c(C)n(Cc2ccc(OC)c(OC)c2)c1C | inconclusive: 14.1 µM [inhibitor, single point] | 
Cc1ccc(C)c(N2CCN(C(=O)C3CCC(CNS(=O)(=O)c4ccc(Br)s4)CC3)CC2)c1 (stereo unspecified) |  | inactive: -18.2% [at 46.1 µM]
Cc1ccc2nsnc2c1NC(=O)c1ccc([N+](=O)[O-])cc1 | inconclusive: 3.16 µM [inhibitor, partial curve, poor fit] | 

A draw from above in order of formula weight, descending:
SMILES | Potency | activity change, negative = inhibition
COc1cccc(NC(=O)Cn2c(=O)n(CCCCC(=O)NCc3ccc4c(c3)OCO4)c(=O)c3ccccc32)c1 | inconclusive: 3.98 µM [inhibitor, full curve, poor fit] | 
CCCOc1ccc(/C(O)=C2/C(=O)C(=O)N(CCN(C)C)C2c2ccco2)cc1 (stereo unspecified) |  | inactive: 5.51%
N#Cc1ccc(OC(=O)c2cnccn2)cc1 |  | inactive: 2.86% [at 46.1 µM]

Later entries.

SMILES | Potency | activity change, negative = inhibition
O=C(O)COc1ccccc1C1Nc2ccccc2-c2nnc(SCc3ccc(Cl)cc3)nc2O1 (stereo unspecified) |  | inactive: 7.81% [at 46.1 µM]
O=C(COC(=O)COc1ccc(Br)cc1)NCCC1=CCCCC1 | inconclusive: 6.31 µM [activator, single point] | 
Clc1cccc(Cl)c1-c1nnc2ccc(N3CCOCC3)nn12 | inconclusive: 20.6 µM [inhibitor, single point] | 
Cc1cccc(CS(=O)(=O)Cc2ccc(C(=O)NCCN3CCCCC3C)o2)c1 (stereo unspecified) |  | inactive: -10.6%
C/C=C/C(=O)Nc1nnc(C2CCCCC2)s1 | inconclusive: 35.5 µM [activator, single point] | 
COc1cc(NC(=O)c2cc([N+](=O)[O-])ccc2NC(=O)CNC2CCCCC2)cc(OC)c1 |  | inactive: -15.5% [at 46.1 µM]
Nc1nc(N)c2nc(CNc3ccc(C(=O)NC(CCC(=O)O)C(=O)O)cc3)cnc2n1 (stereo unspecified) | inactive and active: 22.4 nM | 
CN(C)NC(=S)Nc1cccc(Cl)c1 | inconclusive: 5.01 µM [activator, full curve] | 
COc1cccc(COc2cc3ccccc3nc2C)c1 | inconclusive: 1.3 µM [inhibitor, full curve] | 
C/C(=N\OC(=O)NC(C)C)c1sc(-c2ccccc2)nc1C | inconclusive: 1.78 µM [activator, partial curve] | 
CC(C(=O)OCC(=O)c1ccc([N+](=O)[O-])cc1)N1C(=O)C2C3C=CC(C3)C2C1=O (stereo unspecified) |  | inactive: 16.9%
CC(C)(C)NCc1ccc(OCc2cccs2)cc1 | inconclusive: 17.8 µM [activator, single point] | 
O=S(=O)(Cc1cc(Sc2ccc(Cl)cc2)nc(-c2ccccc2)n1)c1ccccc1 | inconclusive: 0.708 µM [inhibitor, full curve, poor fit] | 
N#Cc1ccc(/C=C\c2nccc3c2[nH]c2ccccc23)cc1 | inconclusive: 25.1 µM [inhibitor, single point] | 
COc1ccc(OC)c(Nc2nc(-c3ccncc3)nc3ccccc23)c1 | inconclusive: 5.01 µM [inhibitor, full curve] | 
CCOC(=O)C1CCCN(CC(=O)NC2=Nc3ccccc3N=C(C)C2c2ccccc2)C1 (stereo unspecified) | inconclusive: 35.5 µM [inhibitor, single point] | 
O=C(NCCSc1ccc(Cl)cc1)c1ccc(CN2CCOCC2)cc1 | inconclusive: 5.62 µM [inhibitor, full curve] | 
CC1(C)CC(=O)C2=C(C1)c1c(ccc3ccccc13)NC2c1cc([N+](=O)[O-])cc([N+](=O)[O-])c1O (stereo unspecified) |  | inconclusive: 12% [activator] [at 46.1 µM]
CCc1noc(C)c1C(=O)OCC(=O)NCc1ccc(Cl)cc1 |  | inactive: -4.93% [at 46.1 µM]
O=S(=O)(c1ccccc1)N1CCN=C1SCc1ccc(Cl)c(Cl)c1 | inconclusive: 0.112 µM [inhibitor, full curve, poor fit] | 
Cc1sc(NC(=O)c2sc3nc4c(C)cccc4cc3c2N)c(C#N)c1C | inconclusive: 35.5 µM [inhibitor, single point] | 
CCc1ccc(S(=O)(=O)N2CCN(c3ccc(Cl)c(Cl)c3)CC2)cc1 |  | inactive: -10.7% [at 46.1 µM]
CCOC(=O)CC(C)(C)/C(C)=N/Nc1ccc([N+](=O)[O-])cc1[N+](=O)[O-] | inconclusive: 4.61 µM [inhibitor, partial curve, poor fit] | 

Shown as tab-separated lines: entries from further up.
SMILES	Potency	activity change, negative = inhibition
C/C=C/C(=O)Nc1nnc(C2CCCCC2)s1	inconclusive: 35.5 µM [activator, single point]	
CCc1ccc(S(=O)(=O)N2CCN(c3ccc(Cl)c(Cl)c3)CC2)cc1		inactive: -10.7% [at 46.1 µM]
